Experiment [1] addresses T1, c-JUN (human (endogenous in TNBC cells)), P05412.
T1 chain: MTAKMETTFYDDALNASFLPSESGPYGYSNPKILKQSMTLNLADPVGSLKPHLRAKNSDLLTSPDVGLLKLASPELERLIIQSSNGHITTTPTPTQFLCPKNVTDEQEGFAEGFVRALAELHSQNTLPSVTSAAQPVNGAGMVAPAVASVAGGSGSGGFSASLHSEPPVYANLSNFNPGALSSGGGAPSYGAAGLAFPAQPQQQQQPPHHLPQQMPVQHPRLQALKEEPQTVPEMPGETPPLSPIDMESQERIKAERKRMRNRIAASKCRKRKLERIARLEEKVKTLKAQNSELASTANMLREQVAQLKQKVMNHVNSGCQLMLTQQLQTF
In words: co-IP; cJUN immunoprecipitated with anti-cJUN antibody (clone C.238.2) on Dynabeads protein G from 200 μg nuclear extract of mock or TP4-treated TNBC cells; FRA1 or FOSB detected by Western blot; nonspecific IgG as negative control. The following applies: remark: other sources report otherwise. (A western blot detects proteins with antibodies after separation by electrophoresis.)

Experiment [2] concerns the target c-JUN (human (endogenous in TNBC cells)) (UniProt P05412). The experiment is described as above.

Results are given in words; binding and its absence hold for the method and conditions named. In cells and extracts the contact can be indirect. Some binding calls cover weakened binding; strength is not graded here.

B1: FOSB, P53539 1-338 (protein)
chain: MFQAFPGDYDSGSRCSSSPSAESQYLSSVDSFGSPPTAAASQECAGLGEMPGSFVPTVTAITTSQDLQWLVQPTLISSMAQSQGQPLASQPPVVDPYDMPGTSYSTPGMSGYSSGGASGSGGPSTSGTTSGPGPARPARARPRRPREETLTPEEEEKRRVRRERNKLAAAKCRNRRRELTDRLQAETDQLEEEKAELESEIAELQKEKERLEFVLVAHKPGCKIPYEEGPGPGPLAEVRDLPGSAPAKEDGFSWLLPPPPPPPLPFQTSQDAPPNLTASLFTHSEVQVLGDPFPVVNPSYTSSFVLTCPEVSAFAGAQRTSGSDQPSDPLNSPSLLAL
On to B1, for which the binding result in experiment [1] is “binds”.

B2: FRA1 (protein, UniProt P15407 1-271)
chain: MFRDFGEPGPSSGNGGGYGGPAQPPAAAQAAQQKFHLVPSINTMSGSQELQWMVQPHFLGPSSYPRPLTYPQYSPPQPRPGVIRALGPPPGVRRRPCEQISPEEEERRRVRRERNKLAAAKCRNRRKELTDFLQAETDKLEDEKSGLQREIEELQKQKERLELVLEAHRPICKIPEGAKEGDTGSTSGTSSPPAPCRPVPCISLSPGPVLEPEALHTPTLMTTPSLTPFTPSLVFTYPSTPEPCASAHRKSSSSSGDPSSDPLGSPTLLAL
On to B2, for which the binding result in experiment [2] is “binds”.

The record behind these values is PMC5130011.
